{"source": "paper PMC7302878", "binders": {"B1": {"name": "AGIA-FD, Q84JK2 1-285 (protein)", "chain": "MLSSAKHQRNHRLSATNKNQTLTKVSSISSSSPSSSSSSSSTSSSSPLPSQDSQAQKRSLVTMEEVWNDINLASIHHLNRHSPHPQHNHEPRFRGQNHHNQNPNSIFQDFLKGSLNQEPAPTSQTTGSAPNGDSTTVTVLYSSPFPPPATVLSLNSGAGFEFLDNQDPLVTSNSNLHTHHHLSNAHAFNTSFEALVPSSSFGKKRGQDSNEGSGNRRHKRMIKNRESAARSRARKQAYTNELELEVAHLQAENARLKRQQDQLKMAAAIQQPKKNTLQRSSTAPF"}}, "molecular_target": "FT-AGIA-AirID (Arabidopsis), Q9SXZ2", "experiment": "proximity labelling; co-translational: FT-AirID co-synthesised with AGIA-FD or AGIA-DHFR in the wheat cell-free system with 500 nM biotin, 16 hr at 16 °C; immunoblotting", "settings": "remark: other sources report otherwise", "note": "No constants are given. Whether binding was seen depends on the method and setting. Binding seen in cells or lysates may run through a third protein. Here binding means that the protein was enriched with, or labelled near, the bait; the list need not be complete.", "data": [{"binder": "B1", "values": [{"measurement": "binding", "value": "binds"}]}]}
